“And” between values parts separate entries of the source, which are not always exact repeats. Identical values can stand only once. Counter-ions that a name gives are not always drawn. ± gives the standard deviation of the averaged measurements. This is one part of the list. Single values are uncertain, as repeats are few or missing.
Tested on: RAW 264.7
Experiment: HMGB1-induced TNF-alpha production relative to HMGB1-stimulated control; higher = more TNF-alpha secretion (less inhibition)
Conditions: stimulus: HMGB1 5 ug/ml, 18 h
[1] = compound concentration: 1 ug/ml

Compound | HMGB1-induced TNF-alpha production (compound concentration: 3 uM) | HMGB1-induced TNF-alpha production [1]
O=C(NCNC(=O)NC1C(=O)NC(=O)N1CO)NC1C(=O)NC(=O)N1CO (configuration not stated) [Imidurea] | 88.1% | –
CC(=O)O[C@H]1CC[C@@]2(C)C(=CC[C@@H]3[C@@H]2CC[C@]2(C)C(=O)CC[C@@H]32)C1 | 84.5% | –
CC(=O)O[C@H]1CC[C@@]2(C)C(=CC[C@@H]3[C@@H]2CC[C@]2(C)C(=O)CC[C@@H]32)C1 [Dehydroisoandosterone 3-acetate] | 123% | –
OCc1cnc[nH]1 [4-Imidazolemethanol hydrochloride] | 87.9% | –
O=C(O)CC[N+](=O)[O-] [3-Nitropropionic acid] | 129% | –
O=C(O)CC[N+](=O)[O-] [BOVINOCIDIN (3-nitropropionic acid)] | 88.2% | –
Oc1ccc2c3c1O[C@H]1[C@@H](O)CC[C@@]4(O)[C@@H](C2)N(CC2CCC2)CC[C@]314 [Nalbuphine hydrochloride] | 69.6% | –
Oc1ccc2c3c1O[C@H]1[C@@H](O)CC[C@@]4(O)[C@@H](C2)N(CC2CCC2)CC[C@]314 [Nalbuphine] | 95.4 ± 8.1% | –
Oc1ccc2c3c1O[C@H]1[C@@H](O)CC[C@@]4(O)[C@@H](C2)N(CC2CCC2)CC[C@]314 | 95.6% | –
CC(N)C(O)c1ccc(O)c(O)c1 (single isomer, unassigned; (-)) [(-)-alpha-Methylnorepinephrine] | 55.3% | –
CC1=C2C3OC(=O)C(C)C3CCC2(C)C=CC1=O (configuration not stated) [a-Santonin] | – | 46%
CC1C=CC=CCCC=CC=CC=CC=CC(OC2OC(C)C(O)C(N)C2O)CC2OC(O)(CC(O)C(O)CCC(O)CC(O)CC(O)CC(=O)OC(C)C(C)C1O)CC(O)C2C(=O)O (configuration not stated) | 85.5% | –
CC1C=CC=CCCC=CC=CC=CC=CC(OC2OC(C)C(O)C(N)C2O)CC2OC(O)(CC(O)C(O)CCC(O)CC(O)CC(O)CC(=O)OC(C)C(C)C1O)CC(O)C2C(=O)O (configuration not stated) [Nystatin] | 88.4% | –
C[C@]12CC[C@H](O)CC1=CC[C@@H]1[C@@H]2CC[C@]2(C)C(=O)CC[C@@H]12 [Dehydroepiandrosterone] | 102% | –
CN1C(=O)CN=C(c2ccccc2)c2cc(Cl)ccc21 [Diazepam] | 104% | –
Cc1cc([C@@H]2CCCN2C)on1 [ABT-418 hydrochloride] | 94.2% | –
CC(C)[C@@]1(NC(=O)[C@@H]2C=C3c4cccc5[nH]cc(c45)C[C@H]3N(C)C2)O[C@@]2(O)[C@@H]3CCCN3C(=O)[C@H](Cc3ccccc3)N2C1=O [Ergocristine] | – | 58%
COc1ccc2c(c1)[C@@]13CCCC[C@H]1[C@@H](C2)NCC3 [3-Methoxy-morphanin hydrochloride] | 95.3% | –
COc1cc2c(c(OC)c1OC)-c1ccc(OC)c(=O)cc1[C@@H](NC(C)=O)CC2 [Colchicine] | 133 ± 19% | 75.4%
COc1cc2c(c(OC)c1OC)-c1ccc(OC)c(=O)cc1[C@@H](NC(C)=O)CC2 | 171 ± 23% | –
N#C[C@H](O[C@@H]1O[C@H](CO[C@@H]2O[C@H](CO)[C@@H](O)[C@H](O)[C@H]2O)[C@@H](O)[C@H](O)[C@H]1O)c1ccccc1 | 91.5% | –
CC[C@@H](CO)NC(=O)[C@@H]1C=C2c3cccc4c3c(cn4C)C[C@H]2N(C)C1 [Methysergide] | 108% | –
CC[C@@H](CO)NC(=O)[C@@H]1C=C2c3cccc4c3c(cn4C)C[C@H]2N(C)C1 | 81.9% | –
CC[C@@H](CO)NC(=O)[C@@H]1C=C2c3cccc4c3c(cn4C)C[C@H]2N(C)C1 [Methysergide maleate] | 97.6% | –
CC(C)C1CNC(C(=O)O)C1CC(=O)O (configuration not stated) [Dihydrokainic acid] | 87.7% | –
CCCCCC[C@H]1C(=O)O[C@H](C)[C@H](NC(=O)c2cccc(NC=O)c2O)C(=O)O[C@@H](C)[C@@H]1OC(=O)CC(C)C [Antimycin A] | 65% | –

Compound | HMGB1-induced TNF-alpha production (compound concentration: 3 uM) | HMGB1-induced TNF-alpha production [1]
CCCN(CCC)[C@H]1CCc2c(F)ccc(O)c2C1 [S(-)-UH-301 hydrochloride] | 99% | –
C=C1C/C(=C/C)C(=O)O[C@@H]2CCN3CC=C(COC(=O)[C@]1(C)O)[C@H]23 [Seneciphylline] | – | 78%
c1ccc2c(c1)OCC(C1=NCCN1)O2 (configuration not stated) | 77% | –
c1ccc2c(c1)OCC(C1=NCCN1)O2 (configuration not stated) [Idazoxan hydrochloride] | 101 ± 7.8% | –
c1ccc2c(c1)OCC(C1=NCCN1)O2 (configuration not stated) [Idazoxan] | 100% | –
C[C@]12CC[C@@H](O)C[C@@H]1CC[C@@H]1[C@@H]2CC[C@]2(C)[C@@H](C(=O)CO)CC[C@@H]12 [3-alpha,21-Dihydroxy-5-alpha-pregnan-20-one] | 101% | –
CC1=C2C(=CO[C@H](C)[C@H]2C)C(O)=C(C(=O)O)C1=O | 81.6% | –
CCCN(CCC)C1CCc2cccc(O)c2C1 (racemic) [(±)-8-Hydroxy-DPAT hydrobromide] | 84.7% | –
CC[N+]1(C)CCCC(OC(=O)C(O)(c2ccccc2)c2ccccc2)C1 (configuration not stated) | 84.2% | –
CC[N+]1(C)CCCC(OC(=O)C(O)(c2ccccc2)c2ccccc2)C1 (configuration not stated) [Pipenzolate bromide] | 87.4% | –
c1ccc2c(c1)Nc1ccccc1S2 | 109% | –
C[C@]12CC[C@H]3[C@@H](CCC4=CC(=O)CC[C@@]43C)[C@@H]1CC[C@@H]2O [Testosterone] | 96.8% | –
C[C@]12CC[C@H]3[C@@H](CCC4=CC(=O)CC[C@@]43C)[C@@H]1CC[C@@H]2O | 100% | –
N=C(NCCC[C@H](N)C(=O)O)N[N+](=O)[O-] [NG-Nitro-L-arginine] | 116% | –
Cc1ccc(/N=C/N(C)/C=N/c2ccc(C)cc2C)c(C)c1 | 95% | –
CCCN(CCC)C1Cc2cc(OC)c(OC)cc2C1 | 103% | –
O=c1c2ccccc2[se]n1-c1ccccc1 [Ebselen] | 66.4 ± 1.3% | –
O=c1c2ccccc2[se]n1-c1ccccc1 | 82.2 ± 3.2% | –
O=C1c2ccccc2-c2cccc3cccc1c23 | 84.7% | –
COC(=O)N1CCN(C(=O)Cc2ccc(Cl)c(Cl)c2)C(CN2CCCC2)C1 (configuration not stated) | 103% and 86.3% | –
NCC(O)c1ccc(O)cc1 (configuration not stated) | 98.5% | –
CC(C)NC(C)Cc1ccc(I)cc1 (configuration not stated) [Iofetamine hydrochloride] | 118% | –
Nc1ncnc2c1ncn2[C@@H]1O[C@H](CI)[C@@H](O)[C@H]1O [5'-Iodo-5'-deoxyadenosine] | – | 67.3%
COc1cc2c(cc1O)C[C@H]1c3c(cc(OC)c(O)c3-2)CCN1C [Isoboldine] | – | 75.7%
O=c1ccc2cc(O[C@@H]3O[C@H](CO)[C@@H](O)[C@H](O)[C@H]3O)c(O)cc2o1 [Esculin] | – | 50.7%
CN1CCc2cccc(Cl)c2CC1 | 117% | –

Compound | HMGB1-induced TNF-alpha production (compound concentration: 3 uM) | HMGB1-induced TNF-alpha production [1]
COC(=O)[C@@H](N)CCCNC(=N)N[N+](=O)[O-] [NG-Nitro-L-arginine methyl ester hydrochloride] | 121% | –
CN1Cc2c(ccc3c2OCO3)[C@@H]2[C@H]1c1cc3c(cc1C[C@@H]2O)OCO3 [(+)-Chelidonine monohydrate] | – | 76.3%
CCCC[N+]1(C)[C@H]2CC(OC(=O)C(CO)c3ccccc3)C[C@H]1[C@H]1O[C@H]12 (some centres not stated) [Scopolamine N-butyl] | 95.7% | –
CN[C@@H](C)[C@H](O)c1ccccc1 [Ephedrine] | – | 81.5%
CC[C@]1(O)CC[C@H]2[C@@H]3CCC4=CCCC[C@@H]4[C@H]3CC[C@@]21C [Ethylestrenol] | 103% | –
CC(=O)O[C@H]1C[C@@H]2CC[C@@H]3[C@H](CC[C@@]4(C)[C@H]3C[C@H]([N+]3(C)CCCCC3)[C@@H]4OC(C)=O)[C@@]2(C)C[C@@H]1[N+]1(C)CCCCC1 [Pancuronium] | 108 ± 3.3% | –
CC(=O)O[C@H]1C[C@@H]2CC[C@@H]3[C@H](CC[C@@]4(C)[C@H]3C[C@H]([N+]3(C)CCCCC3)[C@@H]4OC(C)=O)[C@@]2(C)C[C@@H]1[N+]1(C)CCCCC1 [Pancuronium bromide] | 110 ± 6.2% | –
CC(=O)O[C@H]1C[C@@H]2CC[C@@H]3[C@H](CC[C@@]4(C)[C@H]3C[C@H]([N+]3(C)CCCCC3)[C@@H]4OC(C)=O)[C@@]2(C)C[C@@H]1[N+]1(C)CCCCC1 | 85.6% | –
c1ccc(Cn2ccnc2)cc1 | 114% | –
C[C@]12C[C@H]3S[C@H]3C[C@@H]1CC[C@@H]1[C@@H]2CC[C@]2(C)[C@@H](O)CC[C@@H]12 [Epitiostanol] | 98.5% | –
NC(CCCCCP(=O)(O)O)C(=O)O (racemic) [(±)-2-Amino-7-phosphonoheptanoic acid] | 73.3% | –
COP(=O)(OC)C(O)C(Cl)(Cl)Cl (configuration not stated) [Trichlorfon] | 90.9% | –
COP(=O)(OC)C(O)C(Cl)(Cl)Cl (configuration not stated) | 94.4% | –
CCCC(C)C1(CC)C(=O)NC(=O)NC1=O (configuration not stated) [Pentobarbital] | 117% | –
O=c1cccc2n1CC1CC2CN(CCCN=C=S)C1 (configuration not stated) | – | 69.3%
C[C@@H]1O[C@H](C[N+](C)(C)C)C[C@H]1O (racemic) [(±)-Muscarine chloride] | 112% | –
CP(=O)(O)C1=CCNCC1 | 105% | –
O=c1cccc2n1CC1CC2CN(c2nc(N3CCCC3)nc(N3CCCC3)n2)C1 (configuration not stated) | – | 65.3%
NC(=O)c1cc(N2CC2)c([N+](=O)[O-])cc1[N+](=O)[O-] | 81.3% | –
C=CCN1CC[C@]23c4c5ccc(O)c4O[C@H]2C(=O)CC[C@@]3(O)[C@H]1C5 [Naloxone hydrochloride] | 101 ± 33% | –
C=CCN1CC[C@]23c4c5ccc(O)c4O[C@H]2C(=O)CC[C@@]3(O)[C@H]1C5 [Naloxone] | 84.7% | –
C=CCN1CC[C@]23c4c5ccc(O)c4O[C@H]2C(=O)CC[C@@]3(O)[C@H]1C5 | 92.1% | –
C(#CCN1CCCC1)CN1CCCC1 [Tremorine dihydrochloride] | 65.7% | –
CC[C@@H](C(=O)[C@@H](C)[C@@H](O)[C@H](C)[C@@H]1O[C@@H]([C@@H](CC)C(=O)O)CC[C@@H]1C)[C@H]1O[C@]2(C=C[C@@H](O)[C@]3(CC[C@@](C)([C@H]4CC[C@](O)(CC)[C@H](C)O4)O3)O2)[C@H](C)C[C@@H]1C | 132% | –

Source: the supplement of paper PMC3682954
